Measured values from paper PMC9643518.
Results are given in words; binding and its absence hold for the method and conditions named. Binding seen in cells or lysates may run through a third protein. Some binding calls cover weakened binding; strength is not graded here.

Sequences of proteins named here, by UniProt entry; tags and fusion partners are left off. Residues count along the entry.
UniProt P09055, residues 21-798: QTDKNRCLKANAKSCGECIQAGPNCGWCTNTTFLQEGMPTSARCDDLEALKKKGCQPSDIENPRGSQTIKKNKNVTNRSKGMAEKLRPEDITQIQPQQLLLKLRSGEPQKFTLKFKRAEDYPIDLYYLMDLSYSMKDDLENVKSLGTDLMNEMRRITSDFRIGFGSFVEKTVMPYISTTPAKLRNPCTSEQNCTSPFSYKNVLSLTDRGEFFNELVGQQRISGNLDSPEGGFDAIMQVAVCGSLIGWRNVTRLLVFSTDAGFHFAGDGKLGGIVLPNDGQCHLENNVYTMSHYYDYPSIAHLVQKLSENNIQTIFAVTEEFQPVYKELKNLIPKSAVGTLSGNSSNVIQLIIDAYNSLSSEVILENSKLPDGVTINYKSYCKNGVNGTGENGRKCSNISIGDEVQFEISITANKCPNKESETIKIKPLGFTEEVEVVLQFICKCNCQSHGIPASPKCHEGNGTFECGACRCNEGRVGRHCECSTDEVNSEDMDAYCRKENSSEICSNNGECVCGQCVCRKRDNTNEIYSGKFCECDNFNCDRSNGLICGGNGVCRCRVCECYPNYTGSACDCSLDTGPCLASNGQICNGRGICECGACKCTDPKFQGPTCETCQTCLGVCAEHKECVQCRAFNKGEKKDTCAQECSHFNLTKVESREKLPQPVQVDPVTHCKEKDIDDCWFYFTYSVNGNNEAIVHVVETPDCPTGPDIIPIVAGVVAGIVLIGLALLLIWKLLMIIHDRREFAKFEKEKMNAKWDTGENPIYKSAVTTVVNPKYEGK

B1: integrin α11 (receptor, UniProt P61622 23-1188)
chain: FNMDTRNPRVIAGPSAAFFGYTVQQHDISGKKWLVVGAPMETNGHQKTGDVYKCPVTQGNCTKLNLGRVTLSNVSERKDNMRLGLSLATNPKDNSFLACSPLWSHECGSSYYTTGMCSRANSNFRFSKTVAPALQRCQTYMDIVIVLDGSNSIYPWVEVQHFLINILKKFYIGPGQIQVGIVQYGEDAVHEFHLNDYRSVKDVVEAASHIEQRGGTETRTAFGIEFARSEAFQKGGRKGAKKVMIVITDGESHDSPDLEKVIRQSEKDNVTRYAVAVLGYYNRRGINPETFLNEIKYIASDPDDKHFFNVTDEAALKDIVDALGDRIFSLEGTNKNETSFGLEMSQTGFSSHVVEDGILLGAVGAYDWNGAVLKETSAGKVIPHRESYLKEFPEELKNHAAYLGYTVTSVVSSRQGRVYVAGAPRFNHTGKVILFSMHNNRSLTIHQALRGEQIGSYFGSEITSVDVNDDRVTDVLLVGAPMYFSEGRERGKVYVYNLRQNRFVYNGTLKDSHSYQNARFGSCIASVQDLNQDSYNDVVVGAPLEDSHRGAIYIFHGFQTNILKKPMQRITASELAPGLQHFGCSIHGQLDLNEDGLVDLAVGALGNAVVLWARPVVQINASLHFEPSKINIFHKDCKRNGRDATCLAAFLCFIPIFLAPHFQTATVGIRYNATMDERRYMPRAHLDEGGDQFTNRAVLLSSGQEHCQRINFHVLDTADYVKPVAFSVEYSLEDPDNGPMLDNGWPTTLRVSVPFWNGCNEDEHCVPDLVLDARSDLPTAMEYCQRVLGRPAQDCSSYTLSFDTTVFIIESTRRRVAVEATLENRGENAYSAVLNISQSENLQFASLIQKDDSDNSIECVNEERRLHKKVCNVSYPFFRAKAKVAFRLDFEFSKSVFLHHLQIHLGAGSDSHEQDSTADDNTALLRFHLKYEADVLFTRSSSLSHFEVKANSSLESYDGIGPPFNCVFKVQNLGFFPIHGVMMKITVPIATRGGNRLLMLRDFFTDQGNTSCNIWGNSTEYRSTPTEEDLSHAPQRNHSNSDVVSIICNLRLAPSQETSFYLVGNLWLTSLKALKYRSLKITVNAALQRQFHSPFIFREEDPSRQVTFEISKQEDWQVPIWIIVGSTLGGLLLLALLVLALWKLGFFKSAKRKREPGLGPIPKELK
B2: transmembrane muscle-specific kinase (MuSK) (receptor, UniProt Q61006 22-868)
chain: EKLPKAPVITTPLETVDALVEEVATFMCAVESYPQPEISWTRNKILIKLFDTRYSIRENGQLLTILSVEDSDDGIYCCIANNGVGGAVESCGALQVKMKPKITRPPINVKIIEGLKAVLPCTTMGNPKPSVSWIKGDNALRENSRIAVLESGSLRIHNVQKEDAGQYRCVAKNSLGTAYSKLVKLEVEVFARILRAPESHNVTFGSFVTLRCTAIGIPVPTISWIENGNAVSSGSIQESVKDRVIDSRLQLFITKPGLYTCIATNKHGEKFSTAKAAATVSIAEWSKSQKDSQGYCAQYRGEVCDAVLAKDALVFFNTSYRDPEDAQELLIHTAWNELKAVSPLCRPAAEALLCNHLFQECSPGVVPTPMPICREYCLAVKELFCAKEWQAMEGKAHRGLYRSGMHLLPVPECSKLPSMHRDPTACTRLPYLDYKKENITTFPSITSSRPSADIPNLPASTSSFAVSPAYSMTVIISIVSSFALFALLTIATLYCCRRRKEWKNKKRESTAVTLTTLPSELLLDRLHPNPMYQRMPLLLNPKLLSLEYPRNNIEYVRDIGEGAFGRVFQARAPGLLPYEPFTMVAVKMLKEEASADMQADFQREAALMAEFDNPNIVKLLGVCAVGKPMCLLFEYMAYGDLNEFLRSMSPHTVCSLSHSDLSTRARVSSPGPPPLSCAEQLCIARQVAAGMAYLSERKFVHRDLATRNCLVGETMVVKIADFGLSRNIYSADYYKADGNDAIPIRWMPPESIFYNRYTTESDVWAYGVVLWEIFSYGLQPYYGMAHEEVIYYVRDGNILACPENCPLELYNLMRLCWSKLPADRPSFCSIHRILQRMCERAEGTVGV
B3: dynamin2 (Dyn2) (protein, UniProt P39054 1-870)
chain: MGNRGMEELIPLVNKLQDAFSSIGQSCHLDLPQIAVVGGQSAGKSSVLENFVGRDFLPRGSGIVTRRPLILQLIFSKTEYAEFLHCKSKKFTDFDEVRQEIEAETDRVTGTNKGISPVPINLRVYSPHVLNLTLIDLPGITKVPVGDQPPDIEYQIKDMILQFISRESSLILAVTPANMDLANSDALKLAKEVDPQGLRTIGVITKLDLMDEGTDARDVLENKLLPLRRGYIGVVNRSQKDIEGKKDIRAALAAERKFFLSHPAYRHMADRMGTPHLQKTLNQQLTNHIRESLPTLRSKLQSQLLSLEKEVEEYKNFRPDDPTRKTKALLQMVQQFGVDFEKRIEGSGDQVDTLELSGGARINRIFHERFPFELVKMEFDEKDLRREISYAIKNIHGVRTGLFTPDLAFEAIVKKQVVKLKEPCLKCVDLVIQELISTVRQCTSKLSSYPRLREETERIVTTYIREREGRTKDQILLLIDIEQSYINTNHEDFIGFANAQQRSTQLNKKRAIPNQGEILVIRRGWLTINNISLMKGGSKEYWFVLTAESLSWYKDEEEKEKKYMLPLDNLKIRDVEKGFMSNKHVFAIFNTEQRNVYKDLRQIELACDSQEDVDSWKASFLRAGVYPEKDQAENEDGAQENTFSMDPQLERQVETIRNLVDSYVAIINKSIRDLMPKTIMHLMINNTKAFIHHELLAYLYSSADQSSLMEESAEQAQRRDDMLRMYHALKEALNIIGDISTSTVSTPVPPPVDDTWLQNTSGHSPTPQRRPVSSVHPPGRPPAVRGPTPGPPLIPMPVGATSSFSAPPIPSRPGPQSVFANNDPFSAPPQIPSRPARIPPGIPPGVPSRRAPAAPSRPTIIRPAEPSLLD

These binders were tested against integrin-beta-1 (mouse (endogenous in C2C12)) (UniProt P09055) (assay: proximity ligation; in situ PLA (DuolinkII, mouse-PLUS and rabbit-MINUS probes, detection reagent Orange) on fixed and permeabilized C2C12 myotubes, endogenous proteins; myotubes treated overnight with DMSO or flunarizine (4 μM); proximity < 40 nm).

binding | Binder
binds | B1
binds | B2
binds | B3
